In assay [1] the target is T1, Trim24 (mouse (endogenous in R1 ESC)) (UniProt Q64127).
T1 sequence: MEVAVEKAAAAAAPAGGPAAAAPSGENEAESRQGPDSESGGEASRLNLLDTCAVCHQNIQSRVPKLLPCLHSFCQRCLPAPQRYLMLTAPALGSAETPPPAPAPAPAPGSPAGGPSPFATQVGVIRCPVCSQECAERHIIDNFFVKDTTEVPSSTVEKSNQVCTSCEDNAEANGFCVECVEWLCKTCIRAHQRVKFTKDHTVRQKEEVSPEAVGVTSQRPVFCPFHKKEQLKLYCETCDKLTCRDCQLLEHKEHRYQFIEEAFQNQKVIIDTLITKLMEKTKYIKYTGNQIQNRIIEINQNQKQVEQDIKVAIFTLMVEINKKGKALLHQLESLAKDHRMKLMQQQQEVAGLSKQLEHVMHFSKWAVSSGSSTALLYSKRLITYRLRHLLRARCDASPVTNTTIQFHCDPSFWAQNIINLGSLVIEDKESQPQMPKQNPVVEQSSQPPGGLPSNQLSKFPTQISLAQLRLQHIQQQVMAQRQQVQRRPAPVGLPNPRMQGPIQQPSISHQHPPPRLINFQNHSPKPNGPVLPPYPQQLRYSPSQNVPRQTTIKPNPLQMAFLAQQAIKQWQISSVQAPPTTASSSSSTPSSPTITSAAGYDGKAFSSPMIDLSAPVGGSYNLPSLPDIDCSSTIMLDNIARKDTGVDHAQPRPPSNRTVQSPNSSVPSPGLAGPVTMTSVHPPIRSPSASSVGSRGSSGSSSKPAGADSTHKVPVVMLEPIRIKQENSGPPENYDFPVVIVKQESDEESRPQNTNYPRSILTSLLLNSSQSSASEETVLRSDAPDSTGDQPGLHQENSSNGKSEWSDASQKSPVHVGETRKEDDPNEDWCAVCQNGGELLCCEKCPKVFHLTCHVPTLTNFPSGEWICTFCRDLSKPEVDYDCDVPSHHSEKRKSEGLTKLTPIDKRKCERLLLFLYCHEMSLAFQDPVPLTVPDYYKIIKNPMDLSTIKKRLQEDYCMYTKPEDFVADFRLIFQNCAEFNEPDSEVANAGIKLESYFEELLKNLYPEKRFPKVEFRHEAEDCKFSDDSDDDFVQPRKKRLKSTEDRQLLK
The assay is described as follows: co-IP; whole-cell extract of ESC (hypotonic lysis, then 0.5 M NaCl), diluted in IP wash buffer (20 mM Tris-HCl pH 7.5, 0.2 mM EDTA, 0.5 mM DTT, 0.2% Triton X-100, 150 mM NaCl); 4 ug anti-Trim28 or anti-Trim24 overnight at 4 °C, Dynabeads, Western blot; α-IgG as negative control; also control against Trim33 shRNA knock-down ESC (anti-Trim24 IP, band intensity Trim28/Trim24 by ImageJ, n = 3). For orientation: Immunoblotting shows a protein as a band on a membrane.

Chains of the proteins cited; added tags and fusions are not shown.
UniProt Q62318: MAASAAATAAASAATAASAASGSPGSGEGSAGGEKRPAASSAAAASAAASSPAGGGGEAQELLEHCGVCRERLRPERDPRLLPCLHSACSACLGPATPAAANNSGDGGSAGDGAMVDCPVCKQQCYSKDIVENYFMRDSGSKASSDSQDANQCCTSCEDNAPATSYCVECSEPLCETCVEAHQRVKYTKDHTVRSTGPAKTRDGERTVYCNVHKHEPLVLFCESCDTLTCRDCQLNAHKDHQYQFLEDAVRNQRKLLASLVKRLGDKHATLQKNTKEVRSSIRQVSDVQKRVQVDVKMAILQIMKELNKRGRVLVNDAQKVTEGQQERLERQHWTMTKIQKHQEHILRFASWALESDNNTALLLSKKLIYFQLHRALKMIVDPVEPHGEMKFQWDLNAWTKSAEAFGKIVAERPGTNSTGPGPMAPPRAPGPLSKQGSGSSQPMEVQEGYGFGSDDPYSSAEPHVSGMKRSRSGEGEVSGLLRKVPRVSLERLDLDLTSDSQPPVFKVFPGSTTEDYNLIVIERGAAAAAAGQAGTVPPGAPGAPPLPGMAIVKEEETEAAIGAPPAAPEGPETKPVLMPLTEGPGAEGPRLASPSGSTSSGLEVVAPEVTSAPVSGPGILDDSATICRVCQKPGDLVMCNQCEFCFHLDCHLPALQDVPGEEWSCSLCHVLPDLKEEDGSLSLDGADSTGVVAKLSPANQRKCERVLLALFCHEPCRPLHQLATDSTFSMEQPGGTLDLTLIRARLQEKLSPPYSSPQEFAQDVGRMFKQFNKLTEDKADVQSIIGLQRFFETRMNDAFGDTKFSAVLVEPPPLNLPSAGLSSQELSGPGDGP

Assay [2] has as its target Trim28 (mouse (endogenous in R1 ESC)) (UniProt Q62318). The description is as above.

Results are given in words; binding and its absence hold for the method and conditions named. In cells and extracts the contact can be indirect. Some entries that bind do so weakly or less than the wild type.

B1: Trim33 (protein, UniProt Q99PP7 1-1142)
chain: MAENKGGGEAESGGGGSGSAPVTAGAAGPTAQEAEPPLAAVLVEEEEEEGGRAGAEGGAAGPDDGGVAAASSSSAPAASVPAASVGSAVPGGAASTPAPAAAPAPAPAPAPAPAPAPAPAPAPGSSSGPPLGPPASLLDTCAVCQQSLQSRREAEPKLLPCLHSFCLRCLPEPERQLSVPIPGGSNGDVQQVGVIRCPVCRQECRQIDLVDNYFVKDTSEAPSSSDEKSEQVCTSCEDNASAVGFCVECGEWLCKTCIEAHQRVKFTKDHLIRKKEDVSESVGTSGQRPVFCPVHKQEQLKLFCETCDRLTCRDCQLLEHKEHRYQFLEEAFQNQKGAIENLLAKLLEKKNYVHFAATQVQNRIKEVNETNKRVEQEIKVAIFTLINEINKKGKSLLQQLENVTKERQMKLLQQQNDITGLSRQVKHVMNFTNWAIASGSSTALLYSKRLITFQLRHILKARCDPVPAANGAIRFHCDPTFWAKNVVNLGNLVIESKPAPGYTPNVVVGQVPPGTNHISKTPGQINLAQLRLQHMQQQVYAQKHQQLQQMRLQQPPAPIPTTTATTQQHPRQAAPQMLQQQPPRLISVQTMQRGNMNCGAFQAHQMRLAQNAARIPGIPRHSAPQYSMMQPHLQRQHSNPGHAGPFPVVSAHNPINPTSPTTATMANANRGPTSPSVTAIELIPSVTNPENLPSLPDIPPIQLEDAGSSSLDNLLSRYISGSHLPPQPTSTMNPSPGPSALSPGSSGLSNSHTPVRPPSTSSTGSRGSCGSSGRTAEKSAHSFKSDQVKVKQEPGTEEEICSFSGAVKQEKTEDGRRSACMLSSPESSLTPPLSTNLHLESELDTLTGLENHVKTEPTDISESCKQSGLSNLVNGKSPIRNLMHRSARIGGDGNSKDDDPNEDWCAVCQNGGDLLCCEKCPKVFHLTCHVPTLLSFPSGDWICTFCRDIGKPEVEYDCDNMQHSKKGKTAQGLSPVDQRKCERLLLYLYCHELSIEFQEPVPVSIPNYYKIIKKPMDLSTVKKKLQKKHSQHYQIPDDFVADVRLIFKNCERFNEMMKVVQVYADTQEINLKGDSEVAKAGKAVALYFEDKLSEIYSDRTFTPLPEFEQDEDDGEVTEDSDEDFIQPRRKRLKSDERPVHIK
For B1, the binding entry in assay [1] and in assay [2] was “binds” in each case.

(Values after article PMC7551373.)
